Drawing on ChEMBL document CHEMBL6182906, “Discovery, total synthesis, and biological evaluation of tyrcinnamins as antibacterial agents and tyrosinase activators” (Eur J Med Chem, 2025), this text covers MIC for one molecule.

By MIC is commonly meant the least concentration at which growth counts as inhibited.

Values after ≈ are worked out from the molar mass of the structure shown.

This test concerns Staphylococcus epidermidis. In words: Antibacterial activity against Staphylococcus epidermidis assessed as bacterial growth inhibition incubated for 16 hrs by broth microdilution assay. The class given is functional. In general terms: Broth dilution looks for growth in wells or tubes with falling amounts of substance.

Regarding `CN[C@H](CC(C)C)C(=O)N[C@H]1C(=O)N[C@@H](CC(N)=O)C(=O)N[C@H]2C(=O)N[C@H]3C(=O)N[C@H](C(=O)N[C@H](C(=O)O)c4cc(O)cc(O)c4-c4cc3ccc4O)[C@H](O)c3ccc(c(Cl)c3)Oc3cc2cc(c3O[C@@H]2O[C@H](CO)[C@@H](O)[C@H](O)[C@H]2O[C@H]2C[C@](C)(N)[C@H](O)[C@H](C)O2)Oc2ccc(cc2Cl)[C@H]1O` [VANCOMYCIN], the minimum inhibitory concentration (MIC) is 2.8 µM (≈ 4.06 µg/mL).
